According to article PMC3646048:

Columns and labels:
[1] = target: T1, HA-tagged TSHZ3 full length (UniProt Q8CGV9); test: co-IP; reciprocal: HEK293T cells transiently transfected; immunoprecipitation with anti-HA (3F10) and protein G beads; immunoblot with anti-Flag
T1 sequence: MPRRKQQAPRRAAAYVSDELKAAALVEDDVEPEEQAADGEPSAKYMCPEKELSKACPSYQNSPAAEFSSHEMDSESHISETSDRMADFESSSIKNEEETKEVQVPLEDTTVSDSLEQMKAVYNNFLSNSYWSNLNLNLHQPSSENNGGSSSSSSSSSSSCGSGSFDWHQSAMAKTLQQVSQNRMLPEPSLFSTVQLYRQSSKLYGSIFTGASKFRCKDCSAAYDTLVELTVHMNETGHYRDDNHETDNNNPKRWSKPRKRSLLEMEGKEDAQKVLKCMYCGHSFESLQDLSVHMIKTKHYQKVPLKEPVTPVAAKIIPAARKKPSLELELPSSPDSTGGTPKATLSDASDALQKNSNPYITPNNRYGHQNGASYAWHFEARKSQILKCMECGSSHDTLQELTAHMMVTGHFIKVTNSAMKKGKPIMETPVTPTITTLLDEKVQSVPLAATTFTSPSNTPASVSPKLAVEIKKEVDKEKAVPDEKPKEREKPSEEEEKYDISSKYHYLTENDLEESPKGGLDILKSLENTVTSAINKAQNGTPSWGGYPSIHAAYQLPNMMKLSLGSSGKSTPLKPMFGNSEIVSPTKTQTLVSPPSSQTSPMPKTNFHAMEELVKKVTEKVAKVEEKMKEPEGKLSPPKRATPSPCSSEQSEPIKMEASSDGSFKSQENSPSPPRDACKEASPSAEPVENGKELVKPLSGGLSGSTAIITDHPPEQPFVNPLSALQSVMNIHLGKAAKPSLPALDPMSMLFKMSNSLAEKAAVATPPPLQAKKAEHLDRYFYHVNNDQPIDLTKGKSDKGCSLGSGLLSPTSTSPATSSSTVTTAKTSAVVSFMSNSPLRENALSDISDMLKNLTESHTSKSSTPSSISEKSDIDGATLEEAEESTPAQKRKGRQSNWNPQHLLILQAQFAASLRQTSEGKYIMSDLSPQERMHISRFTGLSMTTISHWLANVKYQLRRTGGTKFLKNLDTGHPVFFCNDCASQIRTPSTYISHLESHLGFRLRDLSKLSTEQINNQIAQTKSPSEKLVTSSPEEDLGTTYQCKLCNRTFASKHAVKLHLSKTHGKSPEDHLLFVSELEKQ

[2] = target: Flag-tagged MYOCD-856 (mouse); test: co-IP; HEK293T cells transfected with HA-SRF, HA-SOX9, HA-TSHZ3 or HA-TSHZ3-trunc with Flag-MYOCD; Flag-MYOCD immunoprecipitated from nuclear extracts; HA-tagged proteins detected by Western blotting; increasing amounts of TSHZ3
[3] = target: Flag-tagged MYOCD-856 (mouse); test: co-IP; HEK293T cells transiently transfected; lysis buffer 50 mM Tris-HCl pH 7.6, 200 mM NaCl, 1 mM EDTA, 0.25% Na-deoxycholate; anti-Flag agarose M2 beads overnight at 4°C; immunoblot with anti-HA
[4] = target: Flag-epitope tagged N-terminal SOX9 (Sox9 DC); test: as above

B2: N-TSHZ3-HA (domain or fragment, UniProt Q8CGV9 1-483)
chain: MPRRKQQAPRRAAAYVSDELKAAALVEDDVEPEEQAADGEPSAKYMCPEKELSKACPSYQNSPAAEFSSHEMDSESHISETSDRMADFESSSIKNEEETKEVQVPLEDTTVSDSLEQMKAVYNNFLSNSYWSNLNLNLHQPSSENNGGSSSSSSSSSSSCGSGSFDWHQSAMAKTLQQVSQNRMLPEPSLFSTVQLYRQSSKLYGSIFTGASKFRCKDCSAAYDTLVELTVHMNETGHYRDDNHETDNNNPKRWSKPRKRSLLEMEGKEDAQKVLKCMYCGHSFESLQDLSVHMIKTKHYQKVPLKEPVTPVAAKIIPAARKKPSLELELPSSPDSTGGTPKATLSDASDALQKNSNPYITPNNRYGHQNGASYAWHFEARKSQILKCMECGSSHDTLQELTAHMMVTGHFIKVTNSAMKKGKPIMETPVTPTITTLLDEKVQSVPLAATTFTSPSNTPASVSPKLAVEIKKEVDKEKAVPDE
- binding [3]: binds

B3: HA-tagged TSHZ3 full length (protein, UniProt Q8CGV9 1-1081)
chain: MPRRKQQAPRRAAAYVSDELKAAALVEDDVEPEEQAADGEPSAKYMCPEKELSKACPSYQNSPAAEFSSHEMDSESHISETSDRMADFESSSIKNEEETKEVQVPLEDTTVSDSLEQMKAVYNNFLSNSYWSNLNLNLHQPSSENNGGSSSSSSSSSSSCGSGSFDWHQSAMAKTLQQVSQNRMLPEPSLFSTVQLYRQSSKLYGSIFTGASKFRCKDCSAAYDTLVELTVHMNETGHYRDDNHETDNNNPKRWSKPRKRSLLEMEGKEDAQKVLKCMYCGHSFESLQDLSVHMIKTKHYQKVPLKEPVTPVAAKIIPAARKKPSLELELPSSPDSTGGTPKATLSDASDALQKNSNPYITPNNRYGHQNGASYAWHFEARKSQILKCMECGSSHDTLQELTAHMMVTGHFIKVTNSAMKKGKPIMETPVTPTITTLLDEKVQSVPLAATTFTSPSNTPASVSPKLAVEIKKEVDKEKAVPDEKPKEREKPSEEEEKYDISSKYHYLTENDLEESPKGGLDILKSLENTVTSAINKAQNGTPSWGGYPSIHAAYQLPNMMKLSLGSSGKSTPLKPMFGNSEIVSPTKTQTLVSPPSSQTSPMPKTNFHAMEELVKKVTEKVAKVEEKMKEPEGKLSPPKRATPSPCSSEQSEPIKMEASSDGSFKSQENSPSPPRDACKEASPSAEPVENGKELVKPLSGGLSGSTAIITDHPPEQPFVNPLSALQSVMNIHLGKAAKPSLPALDPMSMLFKMSNSLAEKAAVATPPPLQAKKAEHLDRYFYHVNNDQPIDLTKGKSDKGCSLGSGLLSPTSTSPATSSSTVTTAKTSAVVSFMSNSPLRENALSDISDMLKNLTESHTSKSSTPSSISEKSDIDGATLEEAEESTPAQKRKGRQSNWNPQHLLILQAQFAASLRQTSEGKYIMSDLSPQERMHISRFTGLSMTTISHWLANVKYQLRRTGGTKFLKNLDTGHPVFFCNDCASQIRTPSTYISHLESHLGFRLRDLSKLSTEQINNQIAQTKSPSEKLVTSSPEEDLGTTYQCKLCNRTFASKHAVKLHLSKTHGKSPEDHLLFVSELEKQ
- binding [4]: binds
- binding [3]: binds

Next, values leading:

- binding [1]: binds
Molecule: Flag-tagged MYOCD-856 (mouse)

- binding [2]: binds
B1: HA-SRF (protein, UniProt Q9JM73 1-504)
chain: MLPSQAGAAAALGRGSALGGNLNRTPTGRPGGGGGTRGANGGRVPGNGAGLGQSRLEREAAAAAAPTAGALYSGSEGDSESGEEEELGAERRGLKRSLSEMELGVVVGGPEAAAAAAGGYGPVSGAVSGAKPGKKTRGRVKIKMEFIDNKLRRYTTFSKRKTGIMKKAYELSTLTGTQVLLLVASETGHVYTFATRKLQPMITSETGKALIQTCLNSPDSPPRSDPTTDQRMSATGFEEPDLTYQVSESDSSGETKDTLKPAFTVTNLPGTTSTIQTAPSTSTTMQVSSGPSFPITNYLAPVSASVSPSAVSSANGTVLKSTGSGPVSSGGLMQLPTSFTLMPGGAVAQQVPVQAIHVHQAPQQASPSRDSSTDLTQTSSSGTVTLPATIMTSSVPTTVGGHMMYPSPHAVMYAPTSGLADGSLTVLNAFSQAPSTMQVSHSQVQEPGGVPQVFLTAPSGTVQIPVSAVQLHQMAVIGQQAGSSSNLTELQVVNLDATHSTKSE

Results are given in words; binding and its absence hold for the method and conditions named. In cells and extracts the contact can be indirect. Binding can be weak; no strength is given. Sequences can lack the tags named with a protein. One block for each molecule: values may come before it.
